Reference: patent publication US20070056058A1 (TARGETED GROWTH, published 2007)
No constants are given. Whether binding was seen depends on the method and setting. Some results given as binding are weak or reduced against the parent protein; the word gives no strength. Where a sequence is shown, tags or fusion partners need not be part of it.

Biological target: T1, Arabidopsis cyclin D2;1 (AtcyclinD2;1), FLAG tagged (Arabidopsis) (UniProt P42752)
T1 sequence: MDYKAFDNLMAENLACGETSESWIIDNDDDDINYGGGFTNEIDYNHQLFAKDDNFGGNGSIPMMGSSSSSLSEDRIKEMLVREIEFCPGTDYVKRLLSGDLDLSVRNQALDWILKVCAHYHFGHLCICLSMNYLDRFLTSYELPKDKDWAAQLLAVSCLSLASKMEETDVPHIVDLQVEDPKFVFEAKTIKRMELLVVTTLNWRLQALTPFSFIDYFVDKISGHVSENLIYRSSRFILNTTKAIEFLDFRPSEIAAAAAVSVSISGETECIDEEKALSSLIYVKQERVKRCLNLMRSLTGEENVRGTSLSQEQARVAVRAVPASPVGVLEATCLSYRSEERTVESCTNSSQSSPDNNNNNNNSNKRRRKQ
Test: in vitro binding, graded (column Cyclin binding)

B1: BnKRP1 wild type (Brassica napus Krp1), construct BnKrp #461 (other, not shown: small tags and cut ends)
chain: MVRKCRKTKGTVGASSTYMQLRSRRIVYRSEKASSSSSSCCASNNNGVIDLEEERDGETETSSCRRSSKRKLFENLREKESMENSQQIVAGFDSAVKESSDCCCSRRTSLSTTEEKGKSATEQPPTAVEIEDFFVEAEKQLHDNFKKKYNFDFEKEKPLEGRYEWVKL
binding: binds
